Measurements published in article PMC3904711.
The exact form of at least one protein or probe is not confirmed. For part of these data: Negatives hold for the conditions tested. For part of these data: At least one verdict was read from the data and is not stated in words by the source. For part of these data: A weaker result is weaker than the reference pair of the same experiment.

Columns and labels:
PgMYB8 (Picea glauca) [1] = assay: EMSA; conditions: 20 mM Tris pH 8.0, 10 mM NaCl, 2 mM EDTA, 2 mM DTT, 10% glycerol, 100 ng poly(dI-dC), 375 ng protein, 0.2 ng probe in 20 ul, room temperature 30 min, recombinant protein, label: 32P end label (unlabelled as competitor)
PgMYB15 (Picea glauca) [2] = assay: EMSA; conditions: 20 mM Tris pH 8.0, 10 mM NaCl, 2 mM EDTA, 2 mM DTT, 10% glycerol, 100 ng poly(dI-dC), 375 ng protein, 0.2 ng probe in 20 ul, room temperature 30 min, recombinant protein, label: 32P end label (unlabelled as competitor)
PgMYB8 (Picea glauca) [3] = assay: competition with a labelled probe; conditions: 20 mM Tris pH 8.0, 10 mM NaCl, 2 mM EDTA, 2 mM DTT, 10% glycerol, 100 ng poly(dI-dC), 375 ng protein, 0.2 ng probe in 20 ul, room temperature 30 min, recombinant protein, label: unlabelled competitor
PgMYB15 (Picea glauca) [4] = assay: competition with a labelled probe; conditions: 20 mM Tris pH 8.0, 10 mM NaCl, 2 mM EDTA, 2 mM DTT, 10% glycerol, 100 ng poly(dI-dC), 375 ng protein, 0.2 ng probe in 20 ul, room temperature 30 min, recombinant protein, label: unlabelled competitor

Question: Does “AACTCGCCGTCTACCTACCCACTCCCGGCT (double strand) [Pg4CL AC-I]” bind (PgMYB8 (Picea glauca) [1]; outcompetes PgMYB15 at ratio 0.7, not displaced by 60-fold PgMYB15)?
Answer: Result: binds

Question: Does “AACTCGCCGTCTACCTACCCACTCCCGGCT (double strand) [Pg4CL AC-I]” bind (PgMYB15 (Picea glauca) [2]; much weaker than PgMYB8 in protein-protein competition for the probe)?
Answer: Result: binds

Question: Does “AACTCGCCGTCTCATGCTACACTCCCGGCT (double strand) [Pg4CL mAC-I]” bind (PgMYB8 (Picea glauca) [3]; vs labelled Pg4CL AC-I)?
Answer: Result: no binding

Question: Does “AACTCGCCGTCTCATGCTACACTCCCGGCT (double strand) [Pg4CL mAC-I]” bind (PgMYB15 (Picea glauca) [4]; vs labelled Pg4CL AC-I)?
Answer: Result: no binding

Question: Does “GAGTCGGTCCTCACCAACTTCTTCCACTTT (double strand) [PgDHS2 AC-II]” bind (PgMYB8 (Picea glauca) [1])?
Answer: Result: binds

Question: Does “GAGTCGGTCCTCACCAACTTCTTCCACTTT (double strand) [PgDHS2 AC-II]” bind (PgMYB15 (Picea glauca) [2])?
Answer: Result: binds more weakly

Question: Which results are given for “GAGTCGGTCCTCCATCTAGTCTTCCACTTT (double strand) [PgDHS2 mAC-II]”?
Answer: binding result (PgMYB8 (Picea glauca) [3]; vs labelled PgDHS2 AC-II): no binding; binding result (PgMYB15 (Picea glauca) [4]; vs labelled PgDHS2 AC-II): no binding

Question: What does the source list for “GGTCCCGTGGCCACCAACTCTGGTGATGTG (double strand) [Pg4CL AC-II]”?
Answer: binding result (PgMYB8 (Picea glauca) [1]): binds; binding result (PgMYB15 (Picea glauca) [2]): no binding

Question: Does “GGTCCCGTGGCCCATCTAGCTGGTGATGTG (double strand) [Pg4CL mAC-II]” bind (PgMYB8 (Picea glauca) [3]; vs labelled Pg4CL AC-II)?
Answer: Result: no binding

Question: Does “GTTGTTGGAGCCACCTACCTCCAATAGATT (double strand) [PgDHS2 AC-I]” bind (PgMYB8 (Picea glauca) [1])?
Answer: Result: binds

Question: Does “GTTGTTGGAGCCACCTACCTCCAATAGATT (double strand) [PgDHS2 AC-I]” bind (PgMYB15 (Picea glauca) [2])?
Answer: Result: binds

Question: Does “GTTGTTGGAGCCCATGCTATCCAATAGATT (double strand) [PgDHS2 mAC-I]” bind (PgMYB8 (Picea glauca) [3]; vs labelled PgDHS2 AC-I)?
Answer: Result: no binding

Question: Does “GTTGTTGGAGCCCATGCTATCCAATAGATT (double strand) [PgDHS2 mAC-I]” bind (PgMYB15 (Picea glauca) [4]; vs labelled PgDHS2 AC-I)?
Answer: Result: no binding
